Chains of the proteins cited; added tags and fusions are not shown.
UniProt O00311: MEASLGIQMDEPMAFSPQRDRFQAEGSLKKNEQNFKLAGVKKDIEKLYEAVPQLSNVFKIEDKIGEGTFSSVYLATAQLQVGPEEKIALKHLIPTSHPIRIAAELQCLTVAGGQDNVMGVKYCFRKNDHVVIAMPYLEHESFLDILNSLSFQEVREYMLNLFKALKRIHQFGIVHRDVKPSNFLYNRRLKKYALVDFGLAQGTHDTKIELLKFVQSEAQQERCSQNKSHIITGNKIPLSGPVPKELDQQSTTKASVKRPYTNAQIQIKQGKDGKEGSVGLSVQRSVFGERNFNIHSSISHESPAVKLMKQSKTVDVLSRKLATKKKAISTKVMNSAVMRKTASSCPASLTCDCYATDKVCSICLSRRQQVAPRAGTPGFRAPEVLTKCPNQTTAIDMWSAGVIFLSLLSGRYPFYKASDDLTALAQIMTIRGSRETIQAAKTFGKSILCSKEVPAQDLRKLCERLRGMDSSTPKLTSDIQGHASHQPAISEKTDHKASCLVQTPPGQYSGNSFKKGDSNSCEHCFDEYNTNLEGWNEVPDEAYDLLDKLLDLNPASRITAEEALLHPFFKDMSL
UniProt Q9UKV5: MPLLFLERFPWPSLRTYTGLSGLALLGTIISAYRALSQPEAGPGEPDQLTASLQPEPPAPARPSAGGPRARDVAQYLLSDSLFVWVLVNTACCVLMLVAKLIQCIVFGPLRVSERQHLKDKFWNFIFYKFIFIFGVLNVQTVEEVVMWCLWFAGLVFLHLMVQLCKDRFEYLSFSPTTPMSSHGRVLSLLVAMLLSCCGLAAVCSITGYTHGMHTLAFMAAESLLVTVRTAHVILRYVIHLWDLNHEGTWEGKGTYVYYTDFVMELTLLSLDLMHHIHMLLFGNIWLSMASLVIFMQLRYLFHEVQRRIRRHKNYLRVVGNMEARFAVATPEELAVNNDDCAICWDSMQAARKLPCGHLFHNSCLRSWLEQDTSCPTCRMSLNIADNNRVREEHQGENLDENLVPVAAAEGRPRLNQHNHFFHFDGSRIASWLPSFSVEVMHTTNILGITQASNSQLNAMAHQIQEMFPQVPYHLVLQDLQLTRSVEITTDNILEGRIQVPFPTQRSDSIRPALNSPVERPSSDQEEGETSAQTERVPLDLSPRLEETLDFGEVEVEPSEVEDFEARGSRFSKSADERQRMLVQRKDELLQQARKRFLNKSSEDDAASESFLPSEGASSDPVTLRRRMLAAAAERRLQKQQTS
UniProt O94822: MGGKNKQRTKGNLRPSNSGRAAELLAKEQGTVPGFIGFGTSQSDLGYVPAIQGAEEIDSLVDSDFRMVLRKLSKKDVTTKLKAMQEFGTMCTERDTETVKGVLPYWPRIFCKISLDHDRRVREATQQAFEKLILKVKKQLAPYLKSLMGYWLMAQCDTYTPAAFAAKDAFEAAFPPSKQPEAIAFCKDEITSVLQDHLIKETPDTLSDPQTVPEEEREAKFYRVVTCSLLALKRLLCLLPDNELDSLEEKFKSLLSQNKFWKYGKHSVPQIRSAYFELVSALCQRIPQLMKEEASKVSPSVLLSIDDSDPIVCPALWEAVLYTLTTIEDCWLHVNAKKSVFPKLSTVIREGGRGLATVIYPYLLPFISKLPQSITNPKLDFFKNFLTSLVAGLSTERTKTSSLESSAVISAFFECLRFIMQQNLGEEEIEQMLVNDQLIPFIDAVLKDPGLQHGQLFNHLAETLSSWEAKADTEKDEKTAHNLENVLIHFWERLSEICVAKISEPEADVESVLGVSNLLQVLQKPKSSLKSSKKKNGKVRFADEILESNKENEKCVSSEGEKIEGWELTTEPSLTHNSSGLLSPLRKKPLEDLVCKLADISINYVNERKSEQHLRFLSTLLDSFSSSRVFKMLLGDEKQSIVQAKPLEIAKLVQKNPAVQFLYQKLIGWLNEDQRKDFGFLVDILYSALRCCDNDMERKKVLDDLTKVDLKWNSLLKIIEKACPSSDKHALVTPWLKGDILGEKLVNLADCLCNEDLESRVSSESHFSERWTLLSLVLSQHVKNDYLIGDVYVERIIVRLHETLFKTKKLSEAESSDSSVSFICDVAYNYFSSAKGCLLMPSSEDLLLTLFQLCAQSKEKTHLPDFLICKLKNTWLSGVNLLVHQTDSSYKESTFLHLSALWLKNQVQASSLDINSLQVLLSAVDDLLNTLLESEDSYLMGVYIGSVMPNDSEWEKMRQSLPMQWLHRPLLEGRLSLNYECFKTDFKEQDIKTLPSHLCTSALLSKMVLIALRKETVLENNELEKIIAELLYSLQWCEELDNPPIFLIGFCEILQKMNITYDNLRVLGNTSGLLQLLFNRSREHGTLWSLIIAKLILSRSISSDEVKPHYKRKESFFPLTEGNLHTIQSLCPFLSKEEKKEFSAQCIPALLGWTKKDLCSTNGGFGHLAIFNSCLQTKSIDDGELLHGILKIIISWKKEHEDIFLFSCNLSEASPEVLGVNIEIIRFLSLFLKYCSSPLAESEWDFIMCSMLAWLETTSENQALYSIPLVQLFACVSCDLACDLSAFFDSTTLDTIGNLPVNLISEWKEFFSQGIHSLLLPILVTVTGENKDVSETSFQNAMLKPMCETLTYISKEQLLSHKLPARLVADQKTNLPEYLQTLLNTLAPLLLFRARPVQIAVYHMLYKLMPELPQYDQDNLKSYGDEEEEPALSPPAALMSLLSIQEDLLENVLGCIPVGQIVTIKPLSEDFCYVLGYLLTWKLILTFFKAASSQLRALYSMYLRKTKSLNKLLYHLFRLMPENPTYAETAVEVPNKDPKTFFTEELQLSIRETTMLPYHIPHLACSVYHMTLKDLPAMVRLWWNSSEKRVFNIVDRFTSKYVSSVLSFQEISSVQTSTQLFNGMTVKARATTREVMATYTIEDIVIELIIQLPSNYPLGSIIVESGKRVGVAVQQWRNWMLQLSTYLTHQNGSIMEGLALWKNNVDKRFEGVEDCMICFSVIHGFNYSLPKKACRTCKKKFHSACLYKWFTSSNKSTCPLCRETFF
UniProt P43250: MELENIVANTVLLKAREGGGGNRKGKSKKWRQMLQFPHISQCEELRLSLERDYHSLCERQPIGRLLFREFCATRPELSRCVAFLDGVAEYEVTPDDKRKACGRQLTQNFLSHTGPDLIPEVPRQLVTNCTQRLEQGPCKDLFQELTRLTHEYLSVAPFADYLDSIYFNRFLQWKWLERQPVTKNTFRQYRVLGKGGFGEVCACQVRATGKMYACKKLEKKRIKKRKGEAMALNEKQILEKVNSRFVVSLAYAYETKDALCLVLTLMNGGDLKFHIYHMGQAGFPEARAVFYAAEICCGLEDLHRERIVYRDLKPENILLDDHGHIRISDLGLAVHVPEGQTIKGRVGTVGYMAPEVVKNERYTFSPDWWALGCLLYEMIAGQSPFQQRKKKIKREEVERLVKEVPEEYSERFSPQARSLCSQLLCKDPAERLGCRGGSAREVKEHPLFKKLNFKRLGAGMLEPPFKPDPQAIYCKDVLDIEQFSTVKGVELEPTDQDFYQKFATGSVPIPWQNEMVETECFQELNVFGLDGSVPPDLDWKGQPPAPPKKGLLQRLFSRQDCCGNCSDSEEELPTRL
UniProt Q14318: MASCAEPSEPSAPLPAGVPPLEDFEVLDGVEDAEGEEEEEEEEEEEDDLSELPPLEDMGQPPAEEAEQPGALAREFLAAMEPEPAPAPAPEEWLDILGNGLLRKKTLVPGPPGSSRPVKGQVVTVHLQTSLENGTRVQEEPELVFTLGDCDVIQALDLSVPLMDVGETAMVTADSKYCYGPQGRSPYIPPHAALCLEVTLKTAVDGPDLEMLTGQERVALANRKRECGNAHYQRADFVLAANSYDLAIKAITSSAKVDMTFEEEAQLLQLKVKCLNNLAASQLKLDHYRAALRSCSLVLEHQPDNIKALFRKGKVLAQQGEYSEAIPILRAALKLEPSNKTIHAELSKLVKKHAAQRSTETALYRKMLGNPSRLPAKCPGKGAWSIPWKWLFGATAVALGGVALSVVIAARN
UniProt Q9UPU5: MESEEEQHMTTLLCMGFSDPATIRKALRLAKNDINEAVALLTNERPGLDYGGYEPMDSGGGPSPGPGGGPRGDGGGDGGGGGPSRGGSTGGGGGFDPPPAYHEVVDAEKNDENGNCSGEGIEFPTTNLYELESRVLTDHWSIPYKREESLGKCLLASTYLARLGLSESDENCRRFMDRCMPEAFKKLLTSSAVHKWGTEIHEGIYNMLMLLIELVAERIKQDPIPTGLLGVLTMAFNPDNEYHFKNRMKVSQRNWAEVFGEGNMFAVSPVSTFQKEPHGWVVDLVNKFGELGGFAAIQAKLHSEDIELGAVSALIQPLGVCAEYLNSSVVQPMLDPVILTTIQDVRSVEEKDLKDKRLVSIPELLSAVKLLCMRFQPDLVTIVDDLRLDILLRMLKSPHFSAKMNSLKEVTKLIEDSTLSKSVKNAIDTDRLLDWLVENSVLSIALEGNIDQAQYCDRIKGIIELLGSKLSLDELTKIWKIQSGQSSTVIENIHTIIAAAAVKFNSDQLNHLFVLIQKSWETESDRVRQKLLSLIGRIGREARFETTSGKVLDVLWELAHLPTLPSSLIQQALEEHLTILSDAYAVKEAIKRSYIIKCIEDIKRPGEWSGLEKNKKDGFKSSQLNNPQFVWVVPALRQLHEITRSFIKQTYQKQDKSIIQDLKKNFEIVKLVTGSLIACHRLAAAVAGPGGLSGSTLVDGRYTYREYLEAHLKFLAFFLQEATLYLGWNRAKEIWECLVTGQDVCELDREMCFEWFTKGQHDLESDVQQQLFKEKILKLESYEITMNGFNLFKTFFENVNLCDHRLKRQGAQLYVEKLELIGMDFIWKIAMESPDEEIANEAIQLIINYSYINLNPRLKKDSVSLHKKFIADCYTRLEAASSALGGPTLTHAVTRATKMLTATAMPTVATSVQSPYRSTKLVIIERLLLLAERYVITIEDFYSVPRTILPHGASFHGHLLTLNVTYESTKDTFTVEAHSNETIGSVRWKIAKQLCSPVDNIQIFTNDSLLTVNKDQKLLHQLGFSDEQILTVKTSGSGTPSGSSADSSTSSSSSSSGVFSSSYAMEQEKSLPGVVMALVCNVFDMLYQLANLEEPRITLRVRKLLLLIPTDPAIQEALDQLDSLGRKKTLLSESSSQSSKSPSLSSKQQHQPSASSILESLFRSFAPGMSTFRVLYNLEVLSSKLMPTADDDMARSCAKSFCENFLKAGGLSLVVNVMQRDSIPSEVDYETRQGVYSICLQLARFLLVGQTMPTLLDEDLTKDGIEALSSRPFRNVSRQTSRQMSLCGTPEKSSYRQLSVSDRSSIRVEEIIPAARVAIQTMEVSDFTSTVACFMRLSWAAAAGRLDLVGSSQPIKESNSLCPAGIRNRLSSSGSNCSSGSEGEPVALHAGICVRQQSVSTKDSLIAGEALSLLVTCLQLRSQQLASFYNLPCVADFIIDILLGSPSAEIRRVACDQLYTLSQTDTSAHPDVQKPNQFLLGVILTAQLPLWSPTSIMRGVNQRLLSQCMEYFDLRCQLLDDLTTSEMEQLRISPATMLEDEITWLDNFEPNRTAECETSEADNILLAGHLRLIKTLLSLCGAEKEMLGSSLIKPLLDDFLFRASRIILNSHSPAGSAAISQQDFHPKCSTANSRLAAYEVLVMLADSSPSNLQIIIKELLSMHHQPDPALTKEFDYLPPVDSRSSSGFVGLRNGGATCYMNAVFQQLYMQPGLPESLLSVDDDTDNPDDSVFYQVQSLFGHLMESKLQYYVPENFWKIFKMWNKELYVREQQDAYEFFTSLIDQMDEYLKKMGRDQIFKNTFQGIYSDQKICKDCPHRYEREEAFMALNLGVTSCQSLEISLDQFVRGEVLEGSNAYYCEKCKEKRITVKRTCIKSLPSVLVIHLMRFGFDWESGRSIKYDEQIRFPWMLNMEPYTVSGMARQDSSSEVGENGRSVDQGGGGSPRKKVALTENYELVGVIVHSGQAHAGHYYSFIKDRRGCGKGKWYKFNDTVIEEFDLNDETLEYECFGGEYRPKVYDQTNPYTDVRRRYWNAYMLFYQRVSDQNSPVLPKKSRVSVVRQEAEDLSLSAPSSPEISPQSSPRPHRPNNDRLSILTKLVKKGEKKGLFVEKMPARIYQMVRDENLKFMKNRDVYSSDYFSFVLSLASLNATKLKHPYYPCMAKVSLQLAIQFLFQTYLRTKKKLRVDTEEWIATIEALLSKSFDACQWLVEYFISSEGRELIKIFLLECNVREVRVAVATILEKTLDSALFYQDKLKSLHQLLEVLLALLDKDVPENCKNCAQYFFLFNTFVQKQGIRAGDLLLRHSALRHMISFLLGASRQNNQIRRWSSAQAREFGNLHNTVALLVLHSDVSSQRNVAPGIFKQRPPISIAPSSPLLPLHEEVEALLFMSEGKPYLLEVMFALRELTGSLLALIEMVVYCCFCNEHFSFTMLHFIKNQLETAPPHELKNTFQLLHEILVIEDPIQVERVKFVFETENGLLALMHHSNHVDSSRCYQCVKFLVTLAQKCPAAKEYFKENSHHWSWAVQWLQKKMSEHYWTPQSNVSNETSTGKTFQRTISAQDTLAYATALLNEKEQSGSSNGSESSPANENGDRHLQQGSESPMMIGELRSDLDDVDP

According to publication PMC10818623, “Assessing Trans-Inhibition of OATP1B1 and OATP1B3 by Calcineurin and/or PPIase Inhibitors and Global Identification of OATP1B1/3-Associated Proteins” (Pharmaceutics, 2023):

Experiments:
[1] = molecular target: T1, FLAG-tagged OATP1B3 (organic anion transporting polypeptide 1B3) (UniProt Q9NPD5); test: affinity purification with mass spectrometry; FLAG-IP (M2 resin, overnight, 4 °C) from whole cell lysates of HEK293-FLAG-OATP1B1, HEK293-FLAG-OATP1B3 and HEK293-Mock cells; lysis buffer 50 mM Tris-HCl pH 7.4, 150 mM NaCl, 1 mM EDTA, 1% Triton X-100; seven washes; elution in SDS sample buffer at 60 °C; LC-MS/MS; N = 1; no drug treatment
T1 sequence: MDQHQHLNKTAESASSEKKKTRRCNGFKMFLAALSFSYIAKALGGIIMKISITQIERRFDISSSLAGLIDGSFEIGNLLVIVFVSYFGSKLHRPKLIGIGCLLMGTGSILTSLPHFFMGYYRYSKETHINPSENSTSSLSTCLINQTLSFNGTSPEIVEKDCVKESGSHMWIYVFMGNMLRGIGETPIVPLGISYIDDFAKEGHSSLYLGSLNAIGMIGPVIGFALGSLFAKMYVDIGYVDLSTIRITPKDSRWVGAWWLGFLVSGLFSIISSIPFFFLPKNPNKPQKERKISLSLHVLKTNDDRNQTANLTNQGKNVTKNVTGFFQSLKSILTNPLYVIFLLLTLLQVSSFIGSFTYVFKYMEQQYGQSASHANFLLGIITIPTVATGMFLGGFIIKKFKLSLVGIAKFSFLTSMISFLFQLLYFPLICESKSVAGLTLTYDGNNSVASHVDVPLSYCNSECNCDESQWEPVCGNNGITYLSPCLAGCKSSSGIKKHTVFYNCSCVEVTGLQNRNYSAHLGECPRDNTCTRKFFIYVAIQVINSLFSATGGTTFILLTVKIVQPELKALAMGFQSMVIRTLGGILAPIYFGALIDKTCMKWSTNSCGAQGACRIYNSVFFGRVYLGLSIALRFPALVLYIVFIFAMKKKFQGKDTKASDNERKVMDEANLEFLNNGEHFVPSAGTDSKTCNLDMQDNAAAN

[2] = molecular target: T2, FLAG-tagged OATP1B1 (organic anion transporting polypeptide 1B1) (UniProt Q9Y6L6); test: as above
T2 sequence: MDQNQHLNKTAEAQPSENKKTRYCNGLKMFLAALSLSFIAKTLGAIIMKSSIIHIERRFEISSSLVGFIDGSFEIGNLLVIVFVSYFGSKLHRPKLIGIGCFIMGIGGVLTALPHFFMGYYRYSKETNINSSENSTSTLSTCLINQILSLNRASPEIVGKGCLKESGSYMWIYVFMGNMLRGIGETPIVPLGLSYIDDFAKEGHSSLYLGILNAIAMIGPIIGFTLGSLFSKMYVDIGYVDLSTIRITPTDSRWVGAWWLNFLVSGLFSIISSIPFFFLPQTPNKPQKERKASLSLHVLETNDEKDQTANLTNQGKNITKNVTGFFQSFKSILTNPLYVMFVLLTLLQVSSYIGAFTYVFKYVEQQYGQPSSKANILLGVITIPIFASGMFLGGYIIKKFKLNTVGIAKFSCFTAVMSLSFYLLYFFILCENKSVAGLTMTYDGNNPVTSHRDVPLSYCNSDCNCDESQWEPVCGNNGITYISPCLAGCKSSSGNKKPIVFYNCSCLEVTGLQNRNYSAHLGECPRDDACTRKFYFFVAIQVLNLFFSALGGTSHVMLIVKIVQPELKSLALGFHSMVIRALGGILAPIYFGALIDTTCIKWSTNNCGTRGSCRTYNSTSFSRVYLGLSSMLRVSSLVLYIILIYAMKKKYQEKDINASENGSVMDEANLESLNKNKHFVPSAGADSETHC

In the case of “Abl interactor 2 (from UniProt Q9NYB9 1-513)”, the binding [1] is reported as “no binding” and the binding [2] is reported as “binds”.

“Bone morphogenetic protein receptor type-2 (from UniProt Q13873 27-1038)” was tested, and the binding [1] was “binds” and the binding [2] was “binds”.

For “Casein kinase I isoform gamma-3 (from UniProt Q9Y6M4 1-447) (enzyme)”, the binding [1] was “binds” and the binding [2] was “binds”.

With “Cell division cycle 7-related protein kinase (from UniProt O00311 1-574) (enzyme)” the binding [1] was “no binding” and the binding [2] was “binds”.

In the case of “E3 ubiquitin-protein ligase AMFR (from UniProt Q9UKV5 1-643) (enzyme)”, the binding [1] is reported as “no binding” and the binding [2] is reported as “binds”.

With “E3 ubiquitin-protein ligase HECTD1 (from UniProt Q9ULT8 1-2610) (enzyme)” the binding [1] was “no binding” and the binding [2] was “binds”.

“E3 ubiquitin-protein ligase RNF5 (from UniProt Q99942 1-180) (enzyme)” was tested, and the binding [1] was “binds” and the binding [2] was “binds”.

For “E3 ubiquitin-protein ligase TRIM32 (from UniProt Q13049 1-653) (enzyme)”, the binding [1] was “no binding” and the binding [2] was “binds”.

“E3 ubiquitin-protein ligase UBR3 (from UniProt Q6ZT12 1-1888) (enzyme)” was tested, and the binding [1] was “no binding” and the binding [2] was “binds”.

For “E3 ubiquitin-protein ligase listerin (from UniProt O94822 1-1766) (enzyme)”, the binding [1] was “no binding” and the binding [2] was “binds”.

“G protein-coupled receptor kinase 6 (from UniProt P43250 1-576) (enzyme)” was tested, and the binding [1] was “binds” and the binding [2] was “binds”.

In the case of “Mitochondrial ubiquitin ligase activator of NFKB 1 (from UniProt Q969V5 1-352) (enzyme)”, the binding [1] is reported as “no binding” and the binding [2] is reported as “binds”.

With “Non-receptor tyrosine-protein kinase TYK2 (from UniProt P29597 1-1187) (enzyme)” the binding [1] was “no binding” and the binding [2] was “binds”.

With “Peptidyl-prolyl cis-trans isomerase B (Cyclophilin B) (from UniProt P23284 34-216) (enzyme)” the binding [1] was “no binding” and the binding [2] was “no binding”.

In the case of “Peptidyl-prolyl cis-trans isomerase FKBP8 (from UniProt Q14318 1-412) (enzyme)”, the binding [1] is reported as “binds” and the binding [2] is reported as “binds”.

With “Probable E3 ubiquitin-protein ligase HERC1 (from UniProt Q15751 1-4861) (enzyme)” the binding [1] was “no binding” and the binding [2] was “binds”.

“RAC-beta serine/threonine-protein kinase (from UniProt P31751 1-481) (enzyme)” was tested, and the binding [1] was “binds” and the binding [2] was “binds”.

With “Receptor tyrosine-protein kinase erbB-2 (from UniProt P04626 23-1255)” the binding [1] was “no binding” and the binding [2] was “binds”.

For “Serine/threonine-protein kinase 19 (human (endogenous in HEK293)) (enzyme)”, the binding [1] was “no binding” and the binding [2] was “binds”.

In the case of “Serine/threonine-protein kinase LMTK2 (from UniProt Q8IWU2 1-1503) (enzyme)”, the binding [1] is reported as “no binding” and the binding [2] is reported as “binds”.

“Serine/threonine-protein kinase Nek7 (from UniProt Q8TDX7 1-302) (enzyme)” was tested, and the binding [1] was “binds” and the binding [2] was “binds”.

For “Serine/threonine-protein kinase SMG1 (from UniProt Q96Q15 1-3661) (enzyme)”, the binding [1] was “no binding” and the binding [2] was “binds”.

For “Tyrosine-protein kinase Fyn (from UniProt P06241 1-537) (enzyme)”, the binding [1] was “binds” and the binding [2] was “binds”.

“Tyrosine-protein kinase Yes (from UniProt P07947 1-543) (enzyme)” was tested, and the binding [1] was “binds” and the binding [2] was “binds”.

For “Ubiquitin carboxyl-terminal hydrolase 24 (from UniProt Q9UPU5 1-2620) (enzyme)”, the binding [1] was “binds” and the binding [2] was “binds”.

With “Ubiquitin-conjugating enzyme E2 Q1 (from UniProt Q7Z7E8 1-422)” the binding [1] was “no binding” and the binding [2] was “binds”.

With “Ubiquitin-protein ligase E3C (from UniProt Q15386 1-1083) (enzyme)” the binding [1] was “no binding” and the binding [2] was “binds”.

B1: Peptidyl-prolyl cis-trans isomerase FKBP5 (enzyme, UniProt Q13451 1-457)
chain: MTTDEGAKNNEESPTATVAEQGEDITSKKDRGVLKIVKRVGNGEETPMIGDKVYVHYKGKLSNGKKFDSSHDRNEPFVFSLGKGQVIKAWDIGVATMKKGEICHLLCKPEYAYGSAGSLPKIPSNATLFFEIELLDFKGEDLFEDGGIIRRTKRKGEGYSNPNEGATVEIHLEGRCGGRMFDCRDVAFTVGEGEDHDIPIGIDKALEKMQREEQCILYLGPRYGFGEAGKPKFGIEPNAELIYEVTLKSFEKAKESWEMDTKEKLEQAAIVKEKGTVYFKGGKYMQAVIQYGKIVSWLEMEYGLSEKESKASESFLLAAFLNLAMCYLKLREYTKAVECCDKALGLDSANEKGLYRRGEAQLLMNEFESAKGDFEKVLEVNPQNKAARLQISMCQKKAKEHNERDRRIYANMFKKFAEQDAKEEANKAMGKKTSEGVTNEKGTDSQAMEEEKPEGHV
In the case of B1, the binding [1] is reported as “no binding” and the binding [2] is reported as “binds”.

B2: E3 ubiquitin-protein ligase Praja-1 (enzyme, UniProt Q8NG27 1-643)
chain: MGQESSKPVWPNPTGGYQSNTGRRYGRRHAYVSFRPPTSQRERIASQRKTNSEVPMHRSAPSQTTKRSRSPFSTTRRSWDDSESSGTNLNIDNEDYSRYPPREYRASGSRRGMAYGHIDSYGADDSEEEGAGPVERPPVRGKTGKFKDDKLYDPEKGARSLAGPPPHFSSFSRDVREERDKLDPVPAARCSASRADFLPQSSVASQSSSEGKLATKGDSSERERREQNLPARPSRAPVSICGGGENTSKSAEEPVVRPKIRNLASPNCVKPKIFFDTDDDDDMPHSTSRWRDTANDNEGHSDGLARRGRGESSSGYPEPKYPEDKREARSDQVKPEKVPRRRRTMADPDFWTHSDDYYKYCDEDSDSDKEWIAALRRKYRSREQTLSSSGESWETLPGKEEREPPQAKVSASTGTSPGPGASASAGAGAGASAGSNGSNYLEEVREPSLQEEQASLEEGEIPWLQYHENDSSSEGDNDSGHELMQPGVFMLDGNNNLEDDSSVSEDLEVDWSLFDGFADGLGVAEAISYVDPQFLTYMALEERLAQAMETALAHLESLAVDVEVANPPASKESIDALPEILVTEDHGAVGQEMCCPICCSEYVKGEVATELPCHHYFHKPCVSIWLQKSGTCPVCRCMFPPPL
For B2, the binding [1] was “binds” and the binding [2] was “binds”.

Results are given in words; binding and its absence hold for the method and conditions named. Binding seen in cells or lysates may run through a third protein. These calls come from enrichment with a bait or labelling near it, and not all partners need be listed. A no says only that the protein was not detected with the bait. Sequences can lack the tags named with a protein.
